Laboratory results taken from PubChem BioAssay AID2073 (Sanford-Burnham Center for Chemical Genomics, 2009).
About 570 (0.2%) of roughly 290,000 compounds were called active. The inconclusive results got no clear call from the source; some entries with a clear call stand among them for comparison. Rule as the data show it: active = inhibition mostly above about 51% (no sharp cut-off); inconclusive = no clear call, values can overlap the other calls; inactive = mostly below about 53%.

Amino acid sequences for entries named in this document (tags omitted).
UniProt Q00975, whole entry, looked up: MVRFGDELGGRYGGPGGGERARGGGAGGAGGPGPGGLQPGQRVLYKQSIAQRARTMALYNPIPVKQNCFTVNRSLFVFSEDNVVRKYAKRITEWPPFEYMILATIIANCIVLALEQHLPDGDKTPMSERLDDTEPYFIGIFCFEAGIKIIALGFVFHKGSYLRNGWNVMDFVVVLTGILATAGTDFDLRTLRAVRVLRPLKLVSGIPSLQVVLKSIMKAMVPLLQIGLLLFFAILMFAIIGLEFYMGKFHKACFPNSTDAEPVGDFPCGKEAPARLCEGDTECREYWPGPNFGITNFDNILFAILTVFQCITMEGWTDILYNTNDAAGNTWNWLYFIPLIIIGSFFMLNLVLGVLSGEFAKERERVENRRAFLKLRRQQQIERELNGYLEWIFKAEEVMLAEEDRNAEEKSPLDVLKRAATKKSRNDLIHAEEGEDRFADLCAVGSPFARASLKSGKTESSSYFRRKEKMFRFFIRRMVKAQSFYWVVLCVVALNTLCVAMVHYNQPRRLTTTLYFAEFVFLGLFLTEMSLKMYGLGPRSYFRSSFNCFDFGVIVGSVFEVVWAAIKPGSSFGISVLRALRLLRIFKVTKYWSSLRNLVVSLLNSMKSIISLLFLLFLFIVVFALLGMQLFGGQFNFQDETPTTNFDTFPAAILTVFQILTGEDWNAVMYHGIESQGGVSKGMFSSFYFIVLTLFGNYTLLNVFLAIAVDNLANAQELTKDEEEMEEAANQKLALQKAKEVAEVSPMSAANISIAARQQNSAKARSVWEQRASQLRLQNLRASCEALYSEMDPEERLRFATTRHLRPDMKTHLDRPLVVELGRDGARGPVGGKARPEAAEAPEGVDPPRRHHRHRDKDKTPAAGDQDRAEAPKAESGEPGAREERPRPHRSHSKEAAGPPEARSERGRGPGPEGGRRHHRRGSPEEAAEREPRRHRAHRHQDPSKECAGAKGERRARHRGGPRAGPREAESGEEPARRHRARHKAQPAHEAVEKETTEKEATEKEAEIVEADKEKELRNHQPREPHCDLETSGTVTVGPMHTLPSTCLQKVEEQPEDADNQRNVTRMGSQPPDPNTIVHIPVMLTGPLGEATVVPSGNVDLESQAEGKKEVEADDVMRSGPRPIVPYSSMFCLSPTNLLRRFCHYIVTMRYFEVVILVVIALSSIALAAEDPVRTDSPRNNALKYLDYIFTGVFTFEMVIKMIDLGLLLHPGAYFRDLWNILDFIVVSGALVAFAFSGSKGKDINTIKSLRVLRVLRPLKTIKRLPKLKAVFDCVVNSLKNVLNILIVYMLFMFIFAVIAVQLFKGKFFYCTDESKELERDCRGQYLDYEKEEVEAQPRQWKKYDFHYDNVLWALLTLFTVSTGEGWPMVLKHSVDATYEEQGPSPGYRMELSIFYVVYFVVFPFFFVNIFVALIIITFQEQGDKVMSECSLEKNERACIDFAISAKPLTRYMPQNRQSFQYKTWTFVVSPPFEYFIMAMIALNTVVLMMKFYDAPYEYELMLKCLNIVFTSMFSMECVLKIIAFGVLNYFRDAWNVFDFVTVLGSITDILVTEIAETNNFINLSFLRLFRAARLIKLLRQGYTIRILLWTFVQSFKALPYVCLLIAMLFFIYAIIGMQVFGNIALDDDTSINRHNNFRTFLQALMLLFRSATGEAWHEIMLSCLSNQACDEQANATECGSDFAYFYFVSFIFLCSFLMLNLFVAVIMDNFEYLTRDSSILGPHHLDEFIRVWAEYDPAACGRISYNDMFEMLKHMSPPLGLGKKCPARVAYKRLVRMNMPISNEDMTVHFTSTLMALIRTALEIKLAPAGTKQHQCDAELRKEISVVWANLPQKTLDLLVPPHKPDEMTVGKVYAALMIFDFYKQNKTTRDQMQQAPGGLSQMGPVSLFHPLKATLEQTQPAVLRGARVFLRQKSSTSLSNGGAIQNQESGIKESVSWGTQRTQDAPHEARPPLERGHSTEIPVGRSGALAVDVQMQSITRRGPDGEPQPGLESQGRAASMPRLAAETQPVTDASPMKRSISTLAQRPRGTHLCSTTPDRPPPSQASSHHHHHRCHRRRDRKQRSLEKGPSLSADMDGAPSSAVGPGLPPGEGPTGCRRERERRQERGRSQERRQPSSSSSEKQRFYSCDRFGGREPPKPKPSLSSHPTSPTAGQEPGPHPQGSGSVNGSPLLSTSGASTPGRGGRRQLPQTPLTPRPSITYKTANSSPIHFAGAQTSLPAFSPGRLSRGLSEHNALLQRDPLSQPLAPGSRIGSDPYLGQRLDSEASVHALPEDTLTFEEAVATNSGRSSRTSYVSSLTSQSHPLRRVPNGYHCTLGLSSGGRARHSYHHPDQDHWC

These compounds were tested against Voltage-dependent N-type calcium channel subunit alpha-1B (Homo sapiens) (UniProt Q00975) (assay: disruptors of CaV2.2 binding to Mint1 – biochemical, HTRF (AID 2073)). Details: HTRF protein-protein interaction, Mint1-CaV2.2; at 20 µM; active compounds read high.

inhibition, inconclusive:
COc1cc(NC(=O)c2ccc(OC)c([N+](=O)[O-])c2)ccc1NC(=O)c1ccco1 77.2%
COC(=O)c1sc(NC(=S)NC(=O)c2ccccc2F)nc1C 66.9%
Cn1c(C(=O)O)cc2c(=O)n3ccccc3nc21 57.6%
Cc1ccc2cc(CN(CC3CCCO3)C(=S)NCc3ccco3)c(=O)[nH]c2c1C (configuration not stated) 96.8%
Cc1cc2oc(C(=O)N(Cc3ccccc3)c3ccccn3)cc(=O)c2cc1Cl 66%
COc1ccc(-c2csc(NCc3ccco3)n2)cc1C 94.7%
COCCNC(=O)c1ccc(CS(=O)(=O)c2c(Cl)cccc2Cl)o1 75.5%
S=c1[nH]ncn2c1cc1oc3ccccc3c12 51.2%
CN(C)S(=O)(=O)N1CCC(Oc2cccc(C(=O)NCCC3=CCCCC3)c2)CC1 52.3%
CC1c2cc3c(cc2CCN1C(=O)c1cccc(Cl)c1)OCCCO3 (configuration not stated) 84.4%
CCOC(=O)c1ccccc1Nc1cn(C(C)=O)c2ccccc12 62.6%
Cc1ccc(CN2CCN(C3CCCC3)C(CCO)C2)s1 (configuration not stated) 52.8%
O=C(NCC(=O)N(Cc1ccco1)C(C(=O)NC1CCCC1)c1cccnc1)c1cccs1 (configuration not stated) 51.5%
Cc1cc(C(=O)OCC(=O)N2CC(=O)Nc3ccccc32)no1 66.3%
CC(=O)OCc1cc(-c2nn(C)c(=O)c3ccccc23)ccc1C 62.8%
CCOc1ccc(C(=O)N2CCN(c3cccc(C)c3C)CC2)cc1 52.8%
O=C(NN1C(=O)C2C(c3ccccc3)C=CC(c3ccccc3)C2C1=O)c1cccc(Br)c1 (configuration not stated) 70.8%
O=C(Nc1ccc(O)c(-c2nc3ccccc3s2)c1)c1cccs1 74.3%
CC(C)n1c(CCC(=O)O)ccc1-c1ccccc1 54.9%
CCN(CC)CCCNC(=O)C(C)n1c2ccccc2c2nc(=O)cc(C)n21 (configuration not stated) 53.4%
COc1ccc(C(=O)/C=C/c2ccc(OC)c(Cn3nnc4ccccc43)c2)cc1 51.6%
CCCNC(=O)Cn1cnc2sc(C(=O)N3CCN(c4ccc(F)cc4)CC3)c(C)c2c1=O 70.5%
C=CCc1cccc(/C=N/NC(=O)C(C)Nc2cccc(C)c2)c1O (configuration not stated) 56.6%
COc1ccc(-n2c(Cc3cccn3C)nnc2SCC(=O)NC2CCCCC2)cc1 67.5%
O=C(Cc1ccccc1)NNC(=O)c1ccccc1C(=O)O 64.5%
c1coc(-c2nc(-c3ccco3)c(-c3ccco3)nc2-c2ccco2)c1 86.1%
CCCc1cc(=O)oc2c(CN3CCCC3)c(O)c(Cl)cc12 77.6%
COC(=O)C(C)N(C#N)c1nc(NC(C)C)nc(SC)n1 (configuration not stated) 56.8%
Cc1ccc(CNC(=O)C2CCCN2C(=O)Nc2ccc(F)cc2)cc1 (configuration not stated) 56.4%
CC1(C)CC(=O)C2=C(C1)Nc1cc(Cl)ccc1S2 84.5%
O=C(COc1cccc2cccnc12)N/N=C1\SCC(=O)N1Cc1ccccc1 65.8%
COC(=O)Cn1c2ccc(OC)cc2c2nc(C)sc21 65.7%
COCCn1c(SCc2ccccc2)nc2c1c(=O)[nH]c(=O)n2C 54.6%
Cc1ccccc1-n1nnnc1SCc1ncc(-c2ccccc2)o1 89.8%
COc1ccc(-c2cc(-c3ccc(N)cc3)nc(N)c2C#N)cc1OC 76%
Cc1cc2nccc(-c3ccc(OCCCF)cc3)n2n1 51.5%
O=c1c2c(-c3cccs3)csc2ncn1/N=C/c1ccc(OC(F)F)cc1 94.5%
Cc1ccnc(NC(=O)Cn2cc([N+](=O)[O-])cn2)c1 63.7%
Cc1cccc2nc(COc3ccc(-c4ccccc4)cc3)cn12 101%
CCOC(=O)c1sc(NC(=O)CN2C(=O)c3cccc4cccc(c34)C2=O)nc1C 74.3%
CC(C)Cc1nnc(NC(=O)CCC(=O)Nc2ccccc2F)s1 64%

At a glance, part of the list above:
inhibition, inconclusive:
CCOC(=O)c1ccccc1Nc1cn(C(C)=O)c2ccccc12 62.6%
Cc1ccc(CN2CCN(C3CCCC3)C(CCO)C2)s1 (configuration not stated) 52.8%
O=C(NCC(=O)N(Cc1ccco1)C(C(=O)NC1CCCC1)c1cccnc1)c1cccs1 (configuration not stated) 51.5%
Cc1cc(C(=O)OCC(=O)N2CC(=O)Nc3ccccc32)no1 66.3%
CC(=O)OCc1cc(-c2nn(C)c(=O)c3ccccc23)ccc1C 62.8%
CCOc1ccc(C(=O)N2CCN(c3cccc(C)c3C)CC2)cc1 52.8%
O=C(NN1C(=O)C2C(c3ccccc3)C=CC(c3ccccc3)C2C1=O)c1cccc(Br)c1 (configuration not stated) 70.8%
O=C(Nc1ccc(O)c(-c2nc3ccccc3s2)c1)c1cccs1 74.3%
CC(C)n1c(CCC(=O)O)ccc1-c1ccccc1 54.9%
CCN(CC)CCCNC(=O)C(C)n1c2ccccc2c2nc(=O)cc(C)n21 (configuration not stated) 53.4%
COc1ccc(C(=O)/C=C/c2ccc(OC)c(Cn3nnc4ccccc43)c2)cc1 51.6%
CCCNC(=O)Cn1cnc2sc(C(=O)N3CCN(c4ccc(F)cc4)CC3)c(C)c2c1=O 70.5%
C=CCc1cccc(/C=N/NC(=O)C(C)Nc2cccc(C)c2)c1O (configuration not stated) 56.6%
COc1ccc(-n2c(Cc3cccn3C)nnc2SCC(=O)NC2CCCCC2)cc1 67.5%
O=C(Cc1ccccc1)NNC(=O)c1ccccc1C(=O)O 64.5%

Following part:

inhibition, inactive:
O=C(O)c1cccnc1-c1ncccc1C(=O)O -7.6%
CCOc1ccc(N2C(=O)CN(C)C2=S)cc1 -2%
COCCNC(=O)/C(C#N)=C/c1ccc(OCc2ccccc2)cc1 -5.6%
O=c1[nH]c(C2CCCN(S(=O)(=O)c3ccc(F)cc3)C2)nc2c1nnn2Cc1ccccc1 (configuration not stated) -1%
COc1ccc(C(NC(=O)CC(C)C)c2c(O)ccc3ccccc23)cc1 (configuration not stated) 15.2%
CCCCCCc1ccc(N2C[C@H](CCCCC)[C@@H](CC(=O)NCc3ccc(OC)cc3)C2=O)cc1 10.1%
COc1ccc(-c2nn(-c3ccccc3)cc2C(=O)N/N=C/c2ccc([N+](=O)[O-])o2)cc1 50.6%
C[C@H]1[C@H](C)CC[C@]2(C(=O)O)CC[C@]3(C)C(=CC[C@@H]4[C@@]5(C)C[C@@H](O)[C@H](O)C(C)(C)[C@@H]5CC[C@]43C)[C@H]12 45.4%
Cc1ccc(Nc2nc(-c3ccc(C)cc3)c(CC(=O)O)s2)cc1 14.4%
O=C(Nc1ccc(C2=NCCN2)cc1)c1ccc(Cl)c(C(=O)Nc2ccc(C3=NCCN3)cc2)c1 36.8%
COC(=O)c1c(NC(=O)COC(=O)c2ccc(O)cc2)sc2c1CCCCC2 5.8%

inhibition, active:
Cc1ncoc1C(=O)Nc1ncc([N+](=O)[O-])s1 68%
O=c1cc2c(=O)oc3cc(O)c(O)oc3c2c(O)c1O 70%
NS(=O)(=O)c1ccc(N=Nc2c(O)ccc3ccccc23)cc1 64.4%
CC(=O)Sc1nc(-c2ccccc2)[nH]c1S(=O)(=O)c1ccc(C)cc1 82.4%
O=C(COC(=O)CCC(=O)c1cccs1)NCc1ccco1 57.8%
